Measured values as given in paper PMC12358912.

Chains of the proteins cited; added tags and fusions are not shown. A change or cut given only in a name is not applied to a line headed by its entry. Chains listed by the source or under a name are the forms on record and can include a tag or linker.
UniProt Q6KC79: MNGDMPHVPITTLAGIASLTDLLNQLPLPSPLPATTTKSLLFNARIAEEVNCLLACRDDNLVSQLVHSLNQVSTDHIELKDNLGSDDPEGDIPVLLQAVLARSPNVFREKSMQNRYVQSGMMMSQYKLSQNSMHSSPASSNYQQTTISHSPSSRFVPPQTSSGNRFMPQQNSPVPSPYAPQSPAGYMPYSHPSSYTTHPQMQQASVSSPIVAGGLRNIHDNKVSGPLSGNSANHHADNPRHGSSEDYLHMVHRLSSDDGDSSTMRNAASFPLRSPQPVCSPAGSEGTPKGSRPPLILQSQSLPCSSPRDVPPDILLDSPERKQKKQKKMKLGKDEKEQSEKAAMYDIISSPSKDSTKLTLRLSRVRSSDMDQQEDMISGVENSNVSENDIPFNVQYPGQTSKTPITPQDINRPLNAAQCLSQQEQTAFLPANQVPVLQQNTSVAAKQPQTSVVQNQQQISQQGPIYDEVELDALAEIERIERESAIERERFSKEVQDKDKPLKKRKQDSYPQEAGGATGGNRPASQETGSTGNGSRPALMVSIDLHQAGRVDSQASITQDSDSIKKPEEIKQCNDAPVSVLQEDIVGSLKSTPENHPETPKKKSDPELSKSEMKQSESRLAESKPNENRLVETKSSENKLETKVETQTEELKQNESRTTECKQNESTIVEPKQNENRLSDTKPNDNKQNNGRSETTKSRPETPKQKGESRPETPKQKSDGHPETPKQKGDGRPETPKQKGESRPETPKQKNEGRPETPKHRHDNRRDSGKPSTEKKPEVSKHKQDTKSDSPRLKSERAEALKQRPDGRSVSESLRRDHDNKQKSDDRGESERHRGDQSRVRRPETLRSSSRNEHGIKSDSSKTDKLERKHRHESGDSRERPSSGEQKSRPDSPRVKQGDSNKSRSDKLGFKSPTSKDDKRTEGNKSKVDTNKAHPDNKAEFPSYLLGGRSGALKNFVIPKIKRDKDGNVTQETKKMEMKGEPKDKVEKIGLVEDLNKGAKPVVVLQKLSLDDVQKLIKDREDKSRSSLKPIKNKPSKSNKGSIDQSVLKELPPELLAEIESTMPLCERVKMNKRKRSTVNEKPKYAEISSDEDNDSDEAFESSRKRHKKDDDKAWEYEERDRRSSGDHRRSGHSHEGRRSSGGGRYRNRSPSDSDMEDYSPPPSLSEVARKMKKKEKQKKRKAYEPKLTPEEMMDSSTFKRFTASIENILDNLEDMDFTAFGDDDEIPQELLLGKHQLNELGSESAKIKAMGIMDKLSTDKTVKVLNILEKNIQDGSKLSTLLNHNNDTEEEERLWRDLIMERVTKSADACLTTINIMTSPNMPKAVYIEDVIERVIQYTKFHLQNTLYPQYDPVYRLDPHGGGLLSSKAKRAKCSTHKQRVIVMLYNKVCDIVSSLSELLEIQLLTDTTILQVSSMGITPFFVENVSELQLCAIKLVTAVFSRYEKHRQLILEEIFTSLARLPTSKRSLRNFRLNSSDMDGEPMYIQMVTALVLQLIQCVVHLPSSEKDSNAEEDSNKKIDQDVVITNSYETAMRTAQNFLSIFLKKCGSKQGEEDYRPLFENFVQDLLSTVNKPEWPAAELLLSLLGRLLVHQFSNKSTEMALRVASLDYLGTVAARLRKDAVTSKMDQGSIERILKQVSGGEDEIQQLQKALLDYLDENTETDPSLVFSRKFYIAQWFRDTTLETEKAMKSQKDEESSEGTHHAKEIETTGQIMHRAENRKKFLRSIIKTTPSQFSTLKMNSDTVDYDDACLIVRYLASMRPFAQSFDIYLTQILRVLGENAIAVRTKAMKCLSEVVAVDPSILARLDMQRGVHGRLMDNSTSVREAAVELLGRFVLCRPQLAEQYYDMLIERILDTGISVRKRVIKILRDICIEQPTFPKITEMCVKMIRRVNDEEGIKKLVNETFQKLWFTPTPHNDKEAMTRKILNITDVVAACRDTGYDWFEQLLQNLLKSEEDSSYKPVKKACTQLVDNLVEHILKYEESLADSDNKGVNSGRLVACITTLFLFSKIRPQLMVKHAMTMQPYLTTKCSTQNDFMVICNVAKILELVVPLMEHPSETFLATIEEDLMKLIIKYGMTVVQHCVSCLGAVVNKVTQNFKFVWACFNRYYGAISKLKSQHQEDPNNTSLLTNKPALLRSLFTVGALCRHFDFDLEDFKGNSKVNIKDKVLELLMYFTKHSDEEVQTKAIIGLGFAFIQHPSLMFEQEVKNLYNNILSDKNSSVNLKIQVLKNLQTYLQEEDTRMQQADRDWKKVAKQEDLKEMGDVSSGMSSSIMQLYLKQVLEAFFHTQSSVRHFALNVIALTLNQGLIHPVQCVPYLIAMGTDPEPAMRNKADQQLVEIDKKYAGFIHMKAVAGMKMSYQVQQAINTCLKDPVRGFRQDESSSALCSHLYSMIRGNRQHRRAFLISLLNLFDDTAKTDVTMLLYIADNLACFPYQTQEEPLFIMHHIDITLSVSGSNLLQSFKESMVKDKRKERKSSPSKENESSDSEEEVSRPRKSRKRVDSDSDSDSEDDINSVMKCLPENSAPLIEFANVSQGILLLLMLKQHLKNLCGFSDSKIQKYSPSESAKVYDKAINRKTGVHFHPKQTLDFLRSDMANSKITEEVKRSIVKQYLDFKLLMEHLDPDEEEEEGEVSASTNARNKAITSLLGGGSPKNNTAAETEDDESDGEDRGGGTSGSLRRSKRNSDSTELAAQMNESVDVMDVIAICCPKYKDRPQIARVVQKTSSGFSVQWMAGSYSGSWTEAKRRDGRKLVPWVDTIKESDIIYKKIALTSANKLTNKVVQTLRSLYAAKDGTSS
STAG1-cohesin (co-purified) (human), one chain, as listed by the source, chain 2 of 4: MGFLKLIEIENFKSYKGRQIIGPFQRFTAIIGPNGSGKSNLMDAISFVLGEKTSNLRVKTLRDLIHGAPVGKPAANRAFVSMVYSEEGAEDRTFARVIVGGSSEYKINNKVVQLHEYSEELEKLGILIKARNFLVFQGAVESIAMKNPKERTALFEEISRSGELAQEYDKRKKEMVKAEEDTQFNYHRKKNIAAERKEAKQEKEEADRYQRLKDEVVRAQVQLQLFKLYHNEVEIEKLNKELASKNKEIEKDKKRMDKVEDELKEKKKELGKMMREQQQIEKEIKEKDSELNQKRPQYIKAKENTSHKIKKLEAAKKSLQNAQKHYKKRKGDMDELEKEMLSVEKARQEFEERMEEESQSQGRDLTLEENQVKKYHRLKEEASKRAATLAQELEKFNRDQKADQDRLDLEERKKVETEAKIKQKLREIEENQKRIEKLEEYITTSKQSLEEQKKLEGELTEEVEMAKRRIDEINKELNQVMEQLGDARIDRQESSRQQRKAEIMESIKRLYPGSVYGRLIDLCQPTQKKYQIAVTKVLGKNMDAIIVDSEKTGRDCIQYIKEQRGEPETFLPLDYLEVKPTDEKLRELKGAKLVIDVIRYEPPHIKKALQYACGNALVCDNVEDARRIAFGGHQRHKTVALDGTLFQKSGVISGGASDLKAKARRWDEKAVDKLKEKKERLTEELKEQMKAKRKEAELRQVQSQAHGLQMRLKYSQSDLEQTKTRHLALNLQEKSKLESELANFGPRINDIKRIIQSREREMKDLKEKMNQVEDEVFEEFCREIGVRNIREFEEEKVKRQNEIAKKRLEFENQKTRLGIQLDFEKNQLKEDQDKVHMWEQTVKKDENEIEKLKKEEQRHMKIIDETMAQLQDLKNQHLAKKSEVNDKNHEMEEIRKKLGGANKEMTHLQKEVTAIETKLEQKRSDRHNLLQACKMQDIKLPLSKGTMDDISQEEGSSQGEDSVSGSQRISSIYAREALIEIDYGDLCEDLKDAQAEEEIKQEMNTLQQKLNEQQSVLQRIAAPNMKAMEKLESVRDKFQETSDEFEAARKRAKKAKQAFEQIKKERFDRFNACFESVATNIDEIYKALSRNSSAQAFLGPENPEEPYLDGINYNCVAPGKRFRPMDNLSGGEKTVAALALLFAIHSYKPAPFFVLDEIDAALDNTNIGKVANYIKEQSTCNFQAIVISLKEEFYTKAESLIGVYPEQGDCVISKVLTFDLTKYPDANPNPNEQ
STAG1-cohesin (co-purified) (human), one chain, as listed by the source, chain 3 of 4: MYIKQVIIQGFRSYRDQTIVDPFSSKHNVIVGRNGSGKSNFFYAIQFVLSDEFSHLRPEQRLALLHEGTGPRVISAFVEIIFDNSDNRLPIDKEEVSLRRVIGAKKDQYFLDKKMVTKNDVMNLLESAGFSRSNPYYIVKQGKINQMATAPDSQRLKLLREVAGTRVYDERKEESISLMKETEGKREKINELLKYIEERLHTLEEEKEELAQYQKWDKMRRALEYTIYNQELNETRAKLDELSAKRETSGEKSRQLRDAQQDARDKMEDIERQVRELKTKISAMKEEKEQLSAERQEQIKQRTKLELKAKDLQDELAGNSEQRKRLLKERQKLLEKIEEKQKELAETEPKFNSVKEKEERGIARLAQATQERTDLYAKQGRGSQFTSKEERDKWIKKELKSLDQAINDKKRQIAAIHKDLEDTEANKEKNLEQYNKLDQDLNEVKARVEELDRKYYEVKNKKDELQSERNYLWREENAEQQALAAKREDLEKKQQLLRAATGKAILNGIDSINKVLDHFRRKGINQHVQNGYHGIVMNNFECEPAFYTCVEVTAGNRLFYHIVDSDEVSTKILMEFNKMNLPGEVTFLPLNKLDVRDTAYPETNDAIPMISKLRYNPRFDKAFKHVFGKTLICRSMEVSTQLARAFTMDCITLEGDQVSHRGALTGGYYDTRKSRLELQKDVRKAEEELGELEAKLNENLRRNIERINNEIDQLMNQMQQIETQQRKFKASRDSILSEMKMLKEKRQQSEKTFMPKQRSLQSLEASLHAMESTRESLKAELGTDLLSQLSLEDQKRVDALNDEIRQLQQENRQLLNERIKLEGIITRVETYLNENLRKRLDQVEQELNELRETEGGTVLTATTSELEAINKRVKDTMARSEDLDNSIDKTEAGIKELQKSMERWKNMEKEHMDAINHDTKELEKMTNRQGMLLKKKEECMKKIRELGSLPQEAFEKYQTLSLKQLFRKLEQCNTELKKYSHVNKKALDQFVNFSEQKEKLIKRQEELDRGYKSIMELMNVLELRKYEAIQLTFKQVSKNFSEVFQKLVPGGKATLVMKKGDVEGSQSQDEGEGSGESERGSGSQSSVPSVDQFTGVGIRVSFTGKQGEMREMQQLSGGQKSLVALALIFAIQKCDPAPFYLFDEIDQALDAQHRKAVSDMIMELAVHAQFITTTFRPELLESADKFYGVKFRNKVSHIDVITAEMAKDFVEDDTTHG
STAG1-cohesin (co-purified) (human), one chain, as listed by the source, chain 4 of 4: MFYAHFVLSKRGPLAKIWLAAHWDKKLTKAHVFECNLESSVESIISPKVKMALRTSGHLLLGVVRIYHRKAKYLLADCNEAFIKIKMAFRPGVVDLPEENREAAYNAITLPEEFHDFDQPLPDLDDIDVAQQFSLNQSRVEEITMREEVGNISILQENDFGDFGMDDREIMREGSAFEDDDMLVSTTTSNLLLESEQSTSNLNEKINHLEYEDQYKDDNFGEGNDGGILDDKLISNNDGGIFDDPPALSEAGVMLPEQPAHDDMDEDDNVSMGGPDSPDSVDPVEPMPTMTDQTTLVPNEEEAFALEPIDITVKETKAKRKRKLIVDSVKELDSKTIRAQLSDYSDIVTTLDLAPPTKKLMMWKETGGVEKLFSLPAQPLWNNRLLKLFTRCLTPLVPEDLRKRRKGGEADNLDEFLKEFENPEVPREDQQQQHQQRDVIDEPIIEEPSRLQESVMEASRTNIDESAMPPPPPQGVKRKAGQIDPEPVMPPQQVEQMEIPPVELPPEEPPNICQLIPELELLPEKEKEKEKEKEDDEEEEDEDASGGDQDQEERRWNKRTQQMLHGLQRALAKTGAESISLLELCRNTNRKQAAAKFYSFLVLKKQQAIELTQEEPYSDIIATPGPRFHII

Assays:
Assay in all cases: mass photometry
[1] = system: STAG1-cohesin (co-purified) (human); conditions: circular DNA preferred over linear, typically 150 nM protein + 150 nM DNA, then diluted (10-fold for NIPBL), phosphate buffer (HEPES for MC604 repeat), recombinant protein, protein details: His, FLAG
[2] = target: ΔN-NIPBL del22-1040 (human) (UniProt Q6KC79); conditions: 150 nM each, no complex, Kd micromolar or higher, typically 150 nM protein + 150 nM DNA, then diluted (10-fold for NIPBL), phosphate buffer (HEPES for MC604 repeat), recombinant protein, residues 1-2804, protein details: His, Strep
[3] = system: cohesin Trimer (SMC1/SMC3/SCC1) (human); conditions: no nucleotide, beyond detection limit, typically 150 nM protein + 150 nM DNA, then diluted (10-fold for NIPBL), phosphate buffer (HEPES for MC604 repeat), recombinant protein, protein details: SCC1 Halo-His14 (TEV sites within SCC1), FLAG
[4] = system: cohesin Trimer (SMC1/SMC3/SCC1) + STAG1 + NIPBL; conditions: 150 nM each, no unbound holoenzyme, independent of ATP or ATPgS, typically 150 nM protein + 150 nM DNA, then diluted (10-fold for NIPBL), phosphate buffer (HEPES for MC604 repeat), recombinant protein

CATATGTGCAGTCCCCCCATAAAAAAACCCGCCGAAGCGGGTTTTTACGTTATTTGCGGATTTTAATTAACTAGTTCTAGAGCTCACGTGCAGCTGTCGACGGTACCTGCAGGCCGGCCAGTACTGGGCCCCAACAGATAAAACGAAAGGCCCAGTCTTTCGACTGAGCCTTTCGTTTTATTGGGCCCCCTTGGTCAAATTGGGTATACCCATTTGGGCCTGGTCTGGCCGGCATGGCGCATTACAGCGGTACGCAATTTAAATGCGCCTAGCGCATTTTCCCGACCTTAATGCGCCTCGCG (double strand) [MC302 supercoiled minicircle]
binding result [1]: binds
binding result [2]: no binding
Kd [3]: > 2 µM
binding result [4]: binds

For some of these results: A negative result means that nothing was seen under these conditions. For some of these results: For at least one entry, the source does not settle the construct or the ends of the probe.
